Reference: PubChem BioAssay AID624297 (National Center for Advancing Translational Sciences (NCATS), 2012)
The whole screen tested about 340,000 compounds, of which about 6,200 (1.8%) were called active. The shares of active, inactive and inconclusive entries below differ from those in the screen. The call rests on the fitted dose curve; in most records, active means well fitted activation curve with a large enough effect; inconclusive means small, poorly fitted or top-dose-only effect; inactive means no such curve, though single readings can be large or run the other way. Where the call is inconclusive, the potency comes from a doubtful curve fit.

Experiment: A quantitative high throughput screen for small molecules that induce DNA re-replication in SW480 colon adenocarcinoma cells. Further: nearly all actives have a fitted effect of over 55% in size.
Settings: Hoechst DNA content imaging, 48 h; series mostly up to 46.1 µM
Outline: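 250 cells/well; 23 nL cpd via pin tool; 48 hr, 37 C, 5% CO2; Hoechst 40 min; imager read of total nuclear intensity, ex 405/em 500-530 nm.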
Potency means the concentration at half of the fitted maximal effect.

Row | Compound | Potency
1 | Cc1cc(C)nc(SCC(=O)NNS(=O)(=O)c2ccc(C#N)cc2)n1 | inconclusive: 8.2 µM [activator, partial curve, poor fit]
2 | O=C(Nc1cccc(S(=O)(=O)N2CCCCCC2)c1)c1ccc2c(c1)OCO2 | inconclusive: 6.51 µM [activator, single point]
3 | Cc1ccc(NC(=O)NC(=O)CN2C(=O)NC3(CCc4ccccc43)C2=O)c(C)c1 (stereo not given) | inconclusive: 20.6 µM [activator, single point]
4 | COc1ccc(/C=C2\CCC(C3CCCC3)C2=O)c(OC)c1OC (stereo not given) | inconclusive: 0.231 µM [activator, full curve, poor fit]
5 | COc1ccc2c(c1)CCc1c-2nc2ccccc2c1N1CCOCC1 | inconclusive: 16.4 µM [activator, single point]
6 | C[C@H](CO)N1C[C@H](C)[C@@H](CN(C)Cc2ccccc2)Oc2c(NC(=O)C3CCCCC3)cccc2C1=O | inactive
7 | COc1ccc(-c2nc(SC(C)C(=O)NC3CC3)n[nH]2)cc1 (stereo not given) | inactive
8 | Cc1cccc(NC(=O)c2nc[nH]c2C(=O)N[C@@H](C)C(=O)OC(C)(C)C)c1 | inconclusive: 25.9 µM [activator, partial curve, poor fit]
9 | CC(=O)CCC(=O)OCC(=O)Nc1ccc(SC(F)F)cc1 | inactive
10 | O=C(Nc1nc2ccccc2[nH]1)c1ccc(Cl)c([N+](=O)[O-])c1 | inconclusive: 0.13 µM [activator, single point]
11 | COc1cc(C=C2C(=O)OC(C)(C)OC2=O)cc(Cl)c1OCC(=O)Nc1ccccc1 | inconclusive: 29.1 µM [activator, single point]
12 | COc1ccc(N)cc1-n1c(C)ccc1C | active: 0.517 µM
13 | O=C(COc1ccc([N+](=O)[O-])cc1Cl)NCCc1ccccc1 | inactive
14 | COc1ccc(CCC(C)NCC2CCCCC2)cc1 (stereo not given) | inconclusive: 0.0046 µM [activator, full curve, poor fit]
15 | COc1ccc(N(C)S(=O)(=O)c2c(C)[nH]c(=O)[nH]c2=O)cc1 | inconclusive: 2.91 µM [activator, full curve, poor fit]
16 | COc1ccc(CNC(=O)Cn2nc(C)c3c(C)n(-c4ccc(C)cc4)nc3c2=O)cc1OC | inactive
17 | Cc1c(C(=O)N2CCN(C)CC2)oc2ccc(Br)cc12 | inconclusive: 18.4 µM [activator, single point]
18 | CC(C)c1ccccc1OCCCCCN1CCOCC1 | inactive
19 | O=c1cc(-c2ccccc2)c2ccc(O)cc2o1 | inconclusive: 14.6 µM [activator, single point]
20 | CCCCCCNc1nc(Cl)nc(NC(C)(C)CO)n1 | inconclusive: 6.51 µM [activator, single point]
21 | Cc1onc(-c2ccccc2Cl)c1C(=O)NCc1nc(-c2ccc(C(F)(F)F)cc2)no1 | inconclusive: 29.1 µM [activator, single point]
22 | CCN(CC)S(=O)(=O)c1ccc(N2CCN(C)CC2)c(NC(=O)CSCC(=O)Nc2cccc(C)c2)c1 | inactive
23 | CC(=O)n1cc([C@@H]2C=C(C(=O)N3CCN(Cc4ccc5c(c4)OCO5)CC3)O[C@H](OCCCCO)C2)c2ccccc21 | inactive

Taken from above.
COc1ccc(/C=C2\CCC(C3CCCC3)C2=O)c(OC)c1OC (stereo not given) | Potency: inconclusive: 0.231 µM [activator, full curve, poor fit]
COc1ccc(N(C)S(=O)(=O)c2c(C)[nH]c(=O)[nH]c2=O)cc1 | Potency: inconclusive: 2.91 µM [activator, full curve, poor fit]

(more compounds)

Row | Compound | Potency
24 | COc1ccc(C2/C(=C(\O)c3ccc4c(c3)CC(C)O4)C(=O)C(=O)N2Cc2cccnc2)c(OC)c1 (stereo not given) | inactive
25 | COc1ccc(/C=C2\CCC(C3CCCC3)C2=O)cc1Cn1cccn1 (stereo not given) | inactive
26 | CCc1ccc(-n2c(=O)c3c(C)c(C(=O)N(C)C)sc3n(CC(=O)NCc3ccco3)c2=O)cc1 | inactive
27 | CCCN(CC(=O)Nc1ccccc1OC)C(=O)Cc1ccc2c(c1)CCC2 | inactive
28 | CCOC(=O)[C@@H]1[C@H]2COc3cc(OC)ccc3[C@H]2N2C(=O)N(c3cccc(Cl)c3)C(=O)[C@@]12C | inconclusive: 23.1 µM [activator, partial curve, poor fit]
29 | O=C(COC(=O)CSc1ccccc1)NNC(=O)c1ccc([N+](=O)[O-])cc1 | inconclusive: 16.4 µM [activator, partial curve, poor fit]
30 | COc1ccc(-c2ccc(C(c3c(C)[nH][nH]c3=O)c3c(C)[nH][nH]c3=O)o2)c([N+](=O)[O-])c1 | inconclusive: 29.1 µM [activator, single point]
31 | NC(=O)N1CCC2(CC1)NC(=O)N(c1ccccc1)N2 | inactive
32 | Cn1c(C2CCCCC2)nc2ccccc21 | inactive
33 | O=c1ccc2ccc(Oc3ccc([N+](=O)[O-])cc3[N+](=O)[O-])cc2o1 | inconclusive: 16.4 µM [activator, single point]
34 | O=C(NCC1CCCN1S(=O)(=O)c1cccs1)c1cccc(F)c1 (stereo not given) | inconclusive: 6.51 µM [activator, single point]
35 | Cc1ccc(Sc2cc(C(=O)NCCCN(C)C)c3ccccc3n2)cc1 | inconclusive: 29.1 µM [activator, single point]
36 | Cc1cc(C)cc(NS(=O)(=O)c2ccc3[nH]cc(C(=O)NCc4ccco4)c(=O)c3c2)c1 | inactive
37 | CC(=O)c1cc(F)ccc1OCC(=O)Nc1ccc2c(c1)OCO2 | inactive
38 | CCOc1ccccc1/C=N/Nc1cc(C)nc2ccc(C)cc12 | inactive
39 | CCOC(=O)c1nn(-c2ccc(OCC)cc2)c2nc(-c3ccco3)c(C#N)c(=O)n12 | inactive
40 | CCc1ccc2c(c1)C1(C(=O)N2)N2CCCC2C(C(=O)c2ccc3ccccc3c2)C12C(=O)Nc1ccccc12 (stereo not given) | inconclusive: 25.9 µM [activator, single point]
41 | CN(C(=O)c1cccc(S(=O)(=O)N2CCOCC2)c1)c1c(N)n(Cc2ccccc2)c(=O)[nH]c1=O | inactive
42 | COc1cccc(C2=CC(c3ccccc3)n3nnnc3N2)c1 (stereo not given) | inactive
43 | S=c1nc(-c2ccccc2Cl)n(Cc2cccnc2)c2c1CCCC2 | inconclusive: 3.26 µM [activator, full curve, poor fit]
44 | COc1cccc(C(C)NC(=O)Nc2cc(Cl)ccc2OC)c1 (stereo not given) | inconclusive: 3.66 µM [activator, single point]
45 | C=CCC1(CC=C)CCCN1C(=O)CC1C(=O)NCCN1Cc1ccccc1OC (stereo not given) | inconclusive: 11.6 µM [activator, partial curve, poor fit]
